Measured values reported in paper PMC7862700.
Some of the results follow. Construct or isoform of the protein are uncertain.

Target: T1, ELF2 (UniProt Q15723)
T1 sequence: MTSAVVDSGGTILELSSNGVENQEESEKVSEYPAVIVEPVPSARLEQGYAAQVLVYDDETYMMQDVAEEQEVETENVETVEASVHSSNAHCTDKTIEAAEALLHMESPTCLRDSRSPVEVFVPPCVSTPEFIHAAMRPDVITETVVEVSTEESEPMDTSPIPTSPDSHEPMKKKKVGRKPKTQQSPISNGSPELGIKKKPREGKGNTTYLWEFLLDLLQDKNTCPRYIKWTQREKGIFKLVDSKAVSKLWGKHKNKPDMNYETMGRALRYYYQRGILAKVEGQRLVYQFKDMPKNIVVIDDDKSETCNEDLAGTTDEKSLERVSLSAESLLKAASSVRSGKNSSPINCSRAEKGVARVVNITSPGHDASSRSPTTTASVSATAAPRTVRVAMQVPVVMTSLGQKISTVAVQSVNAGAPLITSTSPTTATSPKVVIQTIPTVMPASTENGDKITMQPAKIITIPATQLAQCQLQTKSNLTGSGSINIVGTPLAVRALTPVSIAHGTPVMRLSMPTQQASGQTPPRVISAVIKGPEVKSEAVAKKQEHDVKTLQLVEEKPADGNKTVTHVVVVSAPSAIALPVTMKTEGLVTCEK
Assay: DAPPL (digital affinity profiling via proximity ligation, sequencing)
Details: 10 mM Tris-HCl pH 7.5, 50 mM NaCl, 1 mM DTT, 4% glycerol, room temperature, 30 min; GST-TFs on glutathione beads, 16-mer random dsDNA library, 0.1% …; high values mean tight binding; double strand, one strand shown; scale: fold enrichment (6-mer frequency, TF over GST control)

Sequence	binding signal
GCTCAC	1.42
TCAAGA	0.809
CTGGCA	1.17
TTTAAC	1.16
TCTGGT	1.23
ACGTAT	1.2
CGAAAT	1.03
TATGAT	1.15
GATGGA	0.856
CCCTTA	1.24
TCCCCC	1.41
CCTCCG	1.41
GGAAAT	3.79
AATCTG	1.38
GTCTCC	1.34
CATTAT	1.15
ATCAGA	0.905
TCCGAT	1.31
ACAGCT	1.09
TCATAA	0.988

For convenience, some entries already given:
Sequence	binding signal
ATCAGA	0.905
TCCGAT	1.31
ACAGCT	1.09

Remaining list, next part

Sequence	binding signal
TCTGGC	1.17
CGATAG	1.07
TTCATG	1.22
CCTGCG	1.27
CCTAAG	1.08
ATATCC	3.53
ACTGAA	1.15
CAGAAG	0.739
CTACGC	1.41
GCTATG	1.15
GCTTAC	1.12
TCCACC	1.15
GGTAAA	1.01
TACTGT	1.06
CCCGAT	1.2
TCAAAT	1.06
GAAAAA	1.2
TTCGGG	0.876
TGGCAT	1.11
CGCAAA	0.995
